Some entries share one result that the patent states for a list of compounds.
Legend:
Format in all cases: in vivo
[1] = system: Diamond Back Moth (Plutella xylostella); test: Diamond back moth leaf-dip test (B.1); details: 500 ppm; 3rd instar larvae on dipped cabbage leaves; 72 hours after treatment; in comparison with untreated controls
Protocol: The active compound was dissolved at the desired concentration in a mixture of 1:1 (vol:vol) distilled water:aceteone. Surfactant (Kinetic HV) was added at a rate of 0.01% (vol/vol). The test solution was prepared at the day of use.
Leaves of cabbage were dipped in test solution and air-dried. Treated leaves were placed in petri dishes lined with moist filter paper and inoculated with ten 3rd instar larvae. Mortality was recorded 72 hours after treatment. Feeding damages were also recorded using a scale of 0-100%.

[2] = system: Green Peach Aphid (Myzus persicae); test: Green peach aphid artificial diet test, systemic (B.2); details: 2500 ppm; adult aphids on treated artificial diet; 3 days; in comparison with untreated controls
Description: For evaluating control of green peach aphid (Myzus persicae) through systemic means the test unit consisted of 96-well-microtiter plates containing liquid artificial diet under an artificial membrane.
The compounds were formulated using a solution containing 75% v/v water and 25% v/v DMSO. Different concentrations of formulated compounds were pipetted into the aphid diet, using a custom built pipetter, at two replications.
After application, 5-8 adult aphids were placed on the artificial membrane inside the microtiter plate wells. The aphids were then allowed to suck on the treated aphid diet and incubated at about 23±1° C. and about 50±5% relative humidity for 3 days. Aphid mortality and fecundity was then visually assessed.

[3] = system: Vetch Aphid (Megoura viciae); test: Vetch aphid broad bean leaf disk test (B.3); details: 2500 ppm; adult aphids on sprayed leaf disks; 5 days; in comparison with untreated controls
Protocol: For evaluating control of vetch aphid (Megoura viciae) through contact or systemic means the test unit consisted of 24-well-microtiter plates containing broad bean leaf disks.
The compounds were formulated using a solution containing 75% v/v water and 25% v/v DMSO. Different concentrations of formulated compounds were sprayed onto the leaf disks at 2.5 μl, using a custom built micro atomizer, at two replications.
After application, the leaf disks were air-dried and 5-8 adult aphids placed on the leaf disks inside the microtiter plate wells. The aphids were then allowed to suck on the treated leaf disks and incubated at about 23±1° C. and about 50±5% relative humidity for 5 days. Aphid mortality and fecundity was then visually assessed.

[4] = system: Tobacco Budworm (Heliothis virescens); test: Tobacco budworm insect diet test (B.4); details: 2500 ppm; egg and larval mortality; 5 days; in comparison with untreated controls
Protocol: For evaluating control of tobacco budworm (Heliothis virescens) the test unit consisted of 96-well-microtiter plates containing an insect diet and 15-25 H. virescens eggs.
The compounds were formulated using a solution containing 75% v/v water and 25% v/v DMSO. Different concentrations of formulated compounds were sprayed onto the insect diet at 10 μl, using a custom built micro atomizer, at two replications.
(§1) After application, microtiter plates were incubated at about 28±1° C. and about 80±5% relative humidity for 5 days. Egg and larval mortality was then visually assessed.

[5] = system: Boll Weevil (Anthonomus grandis); test: Boll weevil insect diet test (B.5); details: 2500 ppm; egg and larval mortality; 5 days; in comparison with untreated controls
Protocol: For evaluating control of boll weevil (Anthonomus grandis) the test unit consisted of 96-well-microtiter plates containing an insect diet and 5-10 A. grandis eggs.
(§2) The compounds were formulated using a solution containing 75% v/v water and 25% v/v DMSO. Different concentrations of formulated compounds were sprayed onto the insect diet at 5 μl, using a custom built micro atomizer, at two replications.
After application, microtiter plates were incubated at about 25±1° C. and about 75±5% relative humidity for 5 days. Egg and larval mortality was then visually assessed.

[6] = system: Mediterranean Fruitfly (Ceratitis capitata); test: Mediterranean fruitfly insect diet test (B.6); details: 2500 ppm; egg and larval mortality; 5 days; in comparison with untreated controls
Protocol: as §2, with “For evaluating control of Mediterranean fruitfly (Ceratitis capitata) the test unit consisted of microtiter plates containing an insect diet and 50-80 C. capitata eggs. The” for “The”
as §1

[7] = system: Orchid Thrips (Dichromothrips corbetti); test: Orchid thrips floral-immersion test (B.7); details: 500 ppm; adult thrips on dipped orchid petals; 72 hours after treatment; in comparison with untreated controls
Protocol: Dichromothrips corbetti adults used for bioassay were obtained from a colony maintained continuously under laboratory conditions. For testing purposes, the test compound is diluted in a 1:1 mixture of acetone:water (vol:vol), plus Kinetic HV at a rate of 0.01% v/v.
Thrips potency of each compound was evaluated by using a floral-immersion technique. All petals of individual, intact orchid flowers were dipped into treatment solution and allowed to dry in Petri dishes. Treated petals were placed into individual re-sealable plastic along with about 20 adult thrips. All test arenas were held under continuous light and a temperature of about 28° C. for duration of the assay. After 3 days, the numbers of live thrips were counted on each petal. The percent mortality was recorded 72 hours after treatment.

[8] = system: Rice green leafhopper (Nephotettix virescens); test: Rice green leafhopper rice seedling spray test (B.8); details: 500 ppm; adults on sprayed rice seedlings; after 72 hours; in comparison with untreated controls
Protocol: Rice seedlings were cleaned and washed 24 hours before spraying. The active compounds were formulated in 1:1 acetone:water (vol:vol), and 0.01% vol/vol surfactant (Kinetic HV) was added. Potted rice seedlings were sprayed with 5-6 ml test solution, air dried, covered with Mylar cages cages and inoculated with 10 adults. Treated rice plants were kept at about 28-29° C. and relative humidity of about 50-60%. Percent mortality was recorded after 72 hours.

[9] = system: Red Spider Mite (Tetranychus kanzawai); test: Red spider mite cowpea spray test (B.9); details: 500 ppm; mites on sprayed cowpea beans; 72 hours after treatment; in comparison with untreated controls
Protocol: The active compound was dissolved at the desired concentration in a mixture of 1:1 (vol:vol) distilled water:acetone. Add surfactant (Kinetic HV) was added at a rate of 0.01% (vol/vol). The test solution was prepared at the day of use.
Potted cowpea beans of 4-5 days of age were cleaned with tap water and sprayed with 1-2 ml of the test solution using air driven hand atomizer. The treated plants were allowed to air dry and afterwards inoculated with 30 or more mites by clipping a cassava leaf section from rearing population. Treated plants were placed inside a holding room at about 25-27° C. and about 50-60% relative humidity. Percent mortality was assessed 72 hours after treatment.

Measured: mortality

O=C(NCc1ccccn1)c1ccc(C2=NSC(c3cc(Cl)c(F)c(Cl)c3)(C(F)(F)F)C2)c2c1CCC2 (stereo not shown) [Compound 1-3]
at least 75%: all assays above

O=C(NCc1ncccn1)c1ccc(C2=NSC(c3cc(Cl)c(F)c(Cl)c3)(C(F)(F)F)C2)c2c1CCC2 (stereo not shown) [Compound 1-4]
at least 75%: all assays above

O=C(NCC1CC1)c1ccc(C2=NSC(c3cc(Cl)c(F)c(Cl)c3)(C(F)(F)F)C2)c2c1CCC2 (stereo not shown) [Compound 1-5]
at least 75%: all assays above

C=CCNC(=O)c1ccc(C2=NSC(c3cc(Cl)c(F)c(Cl)c3)(C(F)(F)F)C2)c2c1CCC2 (stereo not shown) [Compound 1-6]
at least 75%: all assays above

NC(=O)c1ccc(C2=NSC(c3cc(Cl)c(F)c(Cl)c3)(C(F)(F)F)C2)c2c1CCC2 (stereo not shown) [Compound 1-8]
not listed: [9]
at least 75%: all other assays above

N#CC1(NC(=O)c2ccc(C3=NSC(c4cc(Cl)c(F)c(Cl)c4)(C(F)(F)F)C3)c3c2CCC3)CC1 (stereo not shown) [Compound 1-9]
at least 75%: all assays above

CN(Cc1ccccn1)C(=O)c1ccc(C2=NSC(c3cc(Cl)c(F)c(Cl)c3)(C(F)(F)F)C2)c2c1CCC2 (stereo not shown) [Compound 1-10]
not listed: [6]
at least 75%: all other assays above

O=C(NNc1ncccn1)c1ccc(C2=NSC(c3cc(Cl)c(F)c(Cl)c3)(C(F)(F)F)C2)c2c1CCC2 (stereo not shown) [Compound 1-12]
at least 75%: all assays above

CNC(=O)NNC(=O)c1ccc(C2=NSC(c3cc(Cl)c(F)c(Cl)c3)(C(F)(F)F)C2)c2c1CCC2 (stereo not shown) [Compound 1-13]
at least 75%: all assays above

O=C(NCc1ccccn1)c1ccc(C2=NSC(c3cc(Cl)c(F)c(Cl)c3)(C(F)(F)F)C2)c2c1CCCC2 (stereo not shown) [Compound 2-5]
at least 75%: [2] | [3] | [4] | [5] | [6]

O=C(CNC(=O)c1ccc(C2=NSC(c3cc(Cl)c(F)c(Cl)c3)(C(F)(F)F)C2)c2c1CCCC2)NCC(F)(F)F (stereo not shown) [Compound 2-7]
at least 75%: [2] | [3] | [4] | [5] | [6]

O=C(NCC1CC1)c1ccc(C2=NSC(c3cc(Cl)c(F)c(Cl)c3)(C(F)(F)F)C2)c2c1CCCC2 (stereo not shown) [Compound 2-8]
at least 75%: [2] | [3] | [4] | [5] | [6]
